Experimental data reported in patent EP2185126B1, “USE OF TROXERUTIN TO QUENCH THE FLUORESCENCE OF DISODIUM PHENYL DIBENZIMIDAZOLE TETRASULFONATE” (Symrise AG, priority 2007, dated 2007).

Test: Quenching of fluorescence of disodium phenyl dibenzimidazole tetrasulfonate (no method given)

Compound	quenching of the fluorescence of disodium phenyl dibenzimidazole tetrasulfonate
COc1ccc([C@@H]2CC(=O)c3c(O)cc(O[C@@H]4O[C@H](CO[C@@H]5O[C@@H](C)[C@H](O)[C@@H](O)[C@H]5O)[C@@H](O)[C@H](O)[C@H]4O)cc3O2)cc1O [hesperidin]	do not effectively quench
C[C@@H]1O[C@@H](O[C@H]2[C@H](Oc3cc(O)c4c(c3)O[C@H](c3ccc(O)cc3)CC4=O)O[C@H](CO)[C@@H](O)[C@@H]2O)[C@H](O)[C@H](O)[C@H]1O [naringin]	do not effectively quench
O=c1c(O)c(-c2ccc(O)c(O)c2)oc2cc(O)cc(O)c12 [quercetin]	effective quenchers
C[C@@H]1O[C@@H](OC[C@H]2O[C@@H](Oc3c(-c4ccc(OCCO)c(OCCO)c4)oc4cc(OCCO)cc(O)c4c3=O)[C@H](O)[C@@H](O)[C@@H]2O)[C@H](O)[C@H](O)[C@H]1O [troxerutin, 7,3',4'-tris[O-(2-hydroxyethyl)]rutin]	effective quencher
